Our source for the binding values is publication PMC4957052 (The Journal of Biological Chemistry, 2016).

Results are given in words; binding and its absence hold for the method and conditions named. Some results given as binding are weak or reduced against the parent protein; the word gives no strength.

The target in this assay is T1, mouse β-catenin (GST cleaved) (mouse, UniProt Q02248 1-781).
T1 construct: β-catenin, mouse; Probably the construct of m7 (full length) after TEV cleavage; source: E. coli BL21(DE3), purified (glutathione-agarose, TEV cleavage, Mono Q, S200 gel filtration)
T1 sequence (looked up): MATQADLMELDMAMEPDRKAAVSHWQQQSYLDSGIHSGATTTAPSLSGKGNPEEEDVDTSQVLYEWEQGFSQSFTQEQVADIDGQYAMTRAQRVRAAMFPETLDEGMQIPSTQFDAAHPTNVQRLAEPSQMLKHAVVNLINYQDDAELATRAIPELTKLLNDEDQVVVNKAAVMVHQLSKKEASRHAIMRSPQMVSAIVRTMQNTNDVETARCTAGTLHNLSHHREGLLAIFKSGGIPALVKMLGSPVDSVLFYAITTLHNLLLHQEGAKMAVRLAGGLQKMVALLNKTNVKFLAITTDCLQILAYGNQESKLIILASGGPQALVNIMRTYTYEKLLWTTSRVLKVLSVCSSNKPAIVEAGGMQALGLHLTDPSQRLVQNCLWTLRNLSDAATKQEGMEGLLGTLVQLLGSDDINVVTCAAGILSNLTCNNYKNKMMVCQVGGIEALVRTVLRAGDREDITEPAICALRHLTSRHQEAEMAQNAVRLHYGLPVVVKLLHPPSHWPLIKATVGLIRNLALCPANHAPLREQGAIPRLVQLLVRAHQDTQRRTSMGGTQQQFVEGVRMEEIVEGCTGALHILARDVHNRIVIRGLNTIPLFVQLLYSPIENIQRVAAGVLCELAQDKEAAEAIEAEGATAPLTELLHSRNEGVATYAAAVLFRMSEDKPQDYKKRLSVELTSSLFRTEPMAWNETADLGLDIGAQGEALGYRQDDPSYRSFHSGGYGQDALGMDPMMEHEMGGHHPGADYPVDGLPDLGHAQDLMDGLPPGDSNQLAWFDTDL
As to the kind of experiment: SEC; purified mouse β-catenin mixed with αT-catenin; complex isolated by SEC; both purified.

B1: M. musculus αT-catenin (wild type, full length) (natural protein, UniProt Q65CL1 1-895, looked up)
chain: MSAETPITLNMDTQDLQIQTFTVEKLLEPLIIQVTTLVNCPQNPSNRKKGRSKRARVLLASVEEATWNLLDKGEMIAKEATVLKEELAAALQEVRKESKALKVSAERFTDDPCYLPKREAVVQAARALLAAVTRLLVLADMIDVMCLLQHVSSFQRTFESLKNVSNKSDLQRTYQKLGKELESLDYLAFKRQQDLKSPSQRDEIAGARATLKENSPLLHSICSACLEHSDVASLKASKDTVCEEIQNALDVISNASQGIQNAPAPPEPQAATLGSAFDELENLIVLNPLTVTEEDVRPSLEKRLEAIISGAALLADSSCTRDLHRERIIAECNAIRQALQDLLTEYMSNTGKTERSNTLNTAIVNMSKKTRDLRRQLRKAIIDHISDSFLDTTVPLLVLIEAAKNGRVKEIKDYAAIFHEHTGRLVEVANLACSMSTNEDGIKIVRIAANHLETLCPQIINAALALASRPKSQVVKNTMEMYKRTWEHYIHVLTEAVDDITSIDDFLAVSESHILEDVNKCIIALRDQDADNLDRAAGAIRGRAARVAHIVAGEMDSYEPGAYTEGVMRNVNFLTSTVIPEFVTQVNVALDALSKNSLTALDDNQFVDISKKIYDTIHDIRCSVMMIRTPEELEDVSDLEDDHEVRSHTSIQTEGKTDRAKMTQLPEAEKEKIAEQVADFKKVKSKLDAEIEIWDDTSNDIIVLAKKMCMIMMEMTDFTRGKGPLKHTTDVIYAAKMISESGSRMDVLARQIANQCPDPPCKQDLLAYLEQIKFYSHQLKICSQVKAEIQNLGGELIVSALDSVTSLIQAAKNLMNAVVQTVKMSYIASTKIIRIQSSAGPRHPVVMWRMKAPAKKPLIKREKPEETWAAVRRGSAKKKIHPVQVMSEFRGRQVY
notes: Cloned into pGEX-TEV; cleaved from GST with tobacco etch virus protease; also called αT (testes)-catenin; WT αT-catenin; source: E. coli BL21(DE3), purified (glutathione-agarose, TEV cleavage, Mono Q, S200 gel filtration)
Take B1: the binding entry is reported as “binds”.
